Experimental data: article PMC7552054
Results are given in words; binding and its absence hold for the method and conditions named. In cells and extracts the contact can be indirect. Some entries that bind do so weakly or less than the wild type.

Amino acid sequences for entries named in this document (tags omitted). Residues count along the entry.
UniProt Q9HWC9: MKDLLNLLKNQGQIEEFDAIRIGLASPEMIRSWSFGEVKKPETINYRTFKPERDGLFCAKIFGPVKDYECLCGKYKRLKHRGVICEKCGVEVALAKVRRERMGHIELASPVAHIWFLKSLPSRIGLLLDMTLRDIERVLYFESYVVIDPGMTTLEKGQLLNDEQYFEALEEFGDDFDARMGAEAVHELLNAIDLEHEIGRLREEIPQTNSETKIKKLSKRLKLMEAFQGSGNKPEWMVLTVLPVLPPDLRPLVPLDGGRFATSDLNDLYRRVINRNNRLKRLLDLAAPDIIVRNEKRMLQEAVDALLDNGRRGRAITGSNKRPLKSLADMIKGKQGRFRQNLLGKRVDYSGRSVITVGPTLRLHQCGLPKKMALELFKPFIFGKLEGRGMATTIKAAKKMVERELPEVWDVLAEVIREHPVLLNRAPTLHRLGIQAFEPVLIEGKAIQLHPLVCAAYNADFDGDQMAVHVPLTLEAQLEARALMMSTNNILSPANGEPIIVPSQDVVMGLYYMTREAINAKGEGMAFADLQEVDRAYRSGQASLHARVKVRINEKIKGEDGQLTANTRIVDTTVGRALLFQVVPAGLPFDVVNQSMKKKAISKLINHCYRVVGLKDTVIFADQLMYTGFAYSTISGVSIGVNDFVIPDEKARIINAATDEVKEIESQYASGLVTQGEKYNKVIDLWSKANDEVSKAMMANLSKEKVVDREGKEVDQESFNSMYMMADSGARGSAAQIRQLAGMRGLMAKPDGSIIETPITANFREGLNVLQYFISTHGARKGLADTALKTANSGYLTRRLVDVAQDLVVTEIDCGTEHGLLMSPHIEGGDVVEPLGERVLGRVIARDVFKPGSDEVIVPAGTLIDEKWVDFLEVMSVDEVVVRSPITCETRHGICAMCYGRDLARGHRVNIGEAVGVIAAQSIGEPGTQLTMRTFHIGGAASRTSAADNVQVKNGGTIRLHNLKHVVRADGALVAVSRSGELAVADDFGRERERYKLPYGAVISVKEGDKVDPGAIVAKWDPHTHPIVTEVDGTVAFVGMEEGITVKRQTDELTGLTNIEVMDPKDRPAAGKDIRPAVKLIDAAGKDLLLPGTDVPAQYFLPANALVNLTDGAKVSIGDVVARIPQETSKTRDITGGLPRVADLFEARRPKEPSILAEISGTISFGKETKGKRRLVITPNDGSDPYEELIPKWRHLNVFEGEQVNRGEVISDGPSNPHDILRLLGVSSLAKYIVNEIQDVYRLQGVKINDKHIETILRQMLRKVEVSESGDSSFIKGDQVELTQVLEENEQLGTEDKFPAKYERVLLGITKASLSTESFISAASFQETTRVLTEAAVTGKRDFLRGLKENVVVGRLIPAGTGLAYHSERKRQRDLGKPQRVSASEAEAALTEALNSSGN
UniProt O52760, residues 1-244: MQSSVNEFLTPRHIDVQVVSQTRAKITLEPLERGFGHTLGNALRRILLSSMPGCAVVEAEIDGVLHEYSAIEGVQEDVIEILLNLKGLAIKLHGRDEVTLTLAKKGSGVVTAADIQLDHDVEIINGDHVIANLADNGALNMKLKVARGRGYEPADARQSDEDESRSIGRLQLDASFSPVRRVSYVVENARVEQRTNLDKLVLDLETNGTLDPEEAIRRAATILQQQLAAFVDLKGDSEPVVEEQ

Biological target: P. aeruginosa RNA polymerase β' subunit with a C-terminal Protein A tag (RpoC-Protein A) (P. aeruginosa PAO1) (UniProt Q9HWC9)
Test: pull-down

binding: binds
Substance: N-terminal fragment of the α RNAP subunit (α NTD), cleavage product (from UniProt O52760 1-244) (domain or fragment)
